# Measured values as given in PubChem BioAssay AID445 (National Center for Advancing Translational Sciences (NCATS), 2006).
# Some of the results follow. These are further read-outs of the screen, such as a control signal, another cell line or another target. No call is given for them. Compounds called inactive in the main read-out are mostly missing here. Potencies come from curve fits of mixed quality, noted in brackets.
# Experiment: IkB Signaling
# Details: ABC-DLBCL IkBa-CBG/CBR dual luciferase ratio (green luciferase fused to IkBa over red control in OCI-Ly3 lymphoma cells), 4 h
# In short: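 In this assay, an IκBα–CBG68 fusion accumulates when IKK-driven degradation is blocked; native CBR normalizes for cell number. OCI-Ly3 cells were treated 4 h with compound and doxycycline, then green and red light read after Chroma-Glo addition.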
# [1] = measured here: control luc red channel unless noted
# [2] = measured here: IkB-luc green channel
# [3] = measured here: control luc red channel
smiles,measurement,setting,value
CCc1ccc(NC(=O)CC2C(=O)N(c3cccc(OC)c3)C(=O)N2Cc2ccc(F)cc2)cc1 (stereo not drawn),AC50,[1],"12.6 µM [falling, partial curve]"
COCCc1nn2c(=O)cc(COC(=O)C(c3ccccc3)c3ccccc3)nc2s1,AC50,[1],"25.1 µM [falling, partial curve, poor fit]"
CCN(CC)c1ccc(NC(=O)c2cccn2-c2nnc(N3CCCCC3)s2)c(C)c1,AC50,[1],"25.1 µM [falling, partial curve]"
Cc1c(Cl)cccc1-n1ncc(C(=O)N2CCN(c3ncccn3)CC2)c1C1CCN(C(=O)OC(C)(C)C)CC1,AC50,[1],"39.8 µM [falling, single point]"
Cc1ccc(NC(=O)C(Cc2ccccc2)NS(=O)(=O)c2ccc3c(c2)c(=O)n(C)c(=O)n3C)c(C)c1 (stereo not drawn),AC50,[1],"25.1 µM [falling, partial curve]"
OC[C@@H]1O[C@@H](n2cnc3c(Nc4ccccc4)ncnc32)[C@@H](O)[C@H]1O,AC50,[1],"1.26 µM [rising, full curve] [measured here: IkB-luc green channel]"
COc1ccccc1CNC(=O)c1c[nH]c2ccc(S(=O)(=O)Nc3cc(C)cc(C)c3)cc2c1=O,AC50,[1],"20 µM [falling, partial curve]"
CCCOc1ccc(CNC(=O)CCCn2ncn3c(cc4sc(CC)cc43)c2=O)cc1,AC50,[1],"15.8 µM [falling, single point]"
COc1ccccc1OCC(=O)Nc1ccc(O)cc1C(=O)O,AC50,[1],"0.501 µM [falling, full curve]"
CCCOc1ccc(NC(=O)CC2C(=O)N(c3ccccc3)C(=O)N2Cc2ccco2)cc1 (stereo not drawn),AC50,[1],"10 µM [falling, partial curve, poor fit]"
CCNS(=O)(=O)c1ccc(NC(=O)CSc2nc(-c3ccco3)cc(C(F)(F)F)n2)cc1,AC50,[1],"39.8 µM [falling, single point]"
COc1cccc(NC(=O)CCC(=O)N2Cc3ccccc3Oc3ncccc32)c1,AC50,[1],"20 µM [falling, partial curve, poor fit]"
CC(C)OC(=O)c1cccc(NC(=O)Cn2nnc3sc4c(c3c2=O)CCCC4)c1,AC50,[1],"15.8 µM [falling, partial curve]"
COc1cccc(Nc2ncc3nc(C)c(=O)n(C)c3n2)c1,AC50,[1],"3.16 µM [falling, partial curve] [measured here: IkB-luc green channel]"
Cc1ccc(-n2cc(-c3ccccc3)c3c(N4CCCCC4)ncnc32)cc1,AC50,[1],"3.16 µM [falling, partial curve]"
Cc1cccc(Nc2nnc(-c3ccc(C)c(S(=O)(=O)N4CCCCC4)c3)c3ccccc23)c1,AC50,[1],"0.398 µM [falling, full curve]"
CC(=O)c1cc(C(=O)Nc2ccccc2C(=O)O)oc1C,AC50,[1],"0.316 µM [falling, full curve]"
CCOC(=O)CCS(=O)(=O)c1nc(-c2ccccc2)cc(C(F)(F)F)n1,AC50,[2],"10 µM [falling, partial curve]"
same,AC50,[3],"3.98 µM [falling, full curve]"
O=C(Nc1cc(Cl)cc(Cl)c1)c1ccc(F)c(S(=O)(=O)NCc2ccccc2Cl)c1,AC50,[1],"31.6 µM [falling, partial curve]"
CCOc1ccc(NS(=O)(=O)c2ccc3nc(-c4ccccc4)[nH]c3c2)cc1,AC50,[2],"39.8 µM [rising, single point]"
same,AC50,[3],"15.8 µM [falling, partial curve]"
Cc1ccc(C)c(N2CCN(C(=O)CN(C)S(=O)(=O)c3ccc4c(c3)CCC(=O)N4)CC2)c1,AC50,[1],"12.6 µM [falling, partial curve]"
Cc1nn(-c2ccccc2)c2sc(C(=O)Nc3cccc(O)c3)cc12,AC50,[1],"25.1 µM [falling, single point]"
COc1cc(CN(C(=O)COc2ccc(Cl)c(C)c2)c2ccccn2)cc(OC)c1OC,AC50,[1],"39.8 µM [falling, single point]"
COc1ccc(CCNC(=O)CCCn2nc(C)c3sc4ccccc4c3c2=O)cc1OC,AC50,[1],"10 µM [falling, partial curve]"
CCc1ccccc1Nc1nn2c(=O)c3ccc(C(=O)NC4CCCCC4)cc3nc2s1,AC50,[1],"2.51 µM [falling, partial curve, poor fit]"
Cc1ccc(NC(=O)CN(c2cc(C)cc(C)c2)S(=O)(=O)c2c(C)noc2C)nc1,AC50,[1],"10 µM [falling, partial curve]"
CCOC(=O)c1c(N)n(-c2cccc(C)c2C)c2nc3ccccc3nc12,AC50,[1],"6.31 µM [rising, full curve]"
CCOC(=O)Cn1nnnc1C(CC)N(Cc1cccs1)Cc1cc2ccc(OC)cc2[nH]c1=O (stereo not drawn),AC50,[1],"39.8 µM [falling, single point]"
COc1cccc2c1Oc1ncccc1N(c1ccc(C(=O)NCc3cccc(C)c3)s1)C2,AC50,[1],"12.6 µM [falling, partial curve]"
COc1ccc(/C=C/c2nc(C#N)c(N3CCC(C)CC3)o2)cc1OC,AC50,[1],"39.8 µM [falling, single point]"
COc1cc(C2=NOC(C(=O)N3CCCc4ccccc43)C2)cc(OC)c1OC (stereo not drawn),AC50,[1],"12.6 µM [falling, partial curve]"
CSc1ccc(CCNC(=O)c2ccc(CS(=O)Cc3ccc(Cl)cc3)o2)cc1 (stereo not drawn),AC50,[1],"15.8 µM [falling, partial curve]"
Cc1cccc(-c2nc(CSCC(=O)N3CCN(c4cccc(C)c4C)CC3)c(C)o2)c1,AC50,[1],"25.1 µM [falling, single point]"
Cc1ccc(Cl)cc1NC(=O)c1cc(S(=O)(=O)N2CCCCCC2)cn1C,AC50,[1],"7.94 µM [falling, partial curve]"
CCc1ccc2c(c1)NC(c1cccnc1)=NC(c1ccc(C(C)(C)C)cc1)=N2,AC50,[1],"20 µM [falling, single point]"
COc1cc(C2CC(=O)Nc3c2c(C)nn3-c2nncc(-c3ccccc3)n2)cc(OC)c1OC (stereo not drawn),AC50,[1],"12.6 µM [falling, partial curve]"
O=C(CSc1nc(-c2cccs2)nc2cc(=O)[nH]n12)Nc1ccccc1Cl,AC50,[1],"39.8 µM [falling, single point]"
CCn1c(SCc2ccccc2F)nc(=O)c2c(C(=O)OC)cc(C3CC3)nc21,AC50,[1],"39.8 µM [falling, single point]"
Cc1c(O)ccc(C(=O)COc2ccccc2F)c1O,AC50,[1],"12.6 µM [falling, partial curve]"
Cc1cccc(N2CCN(C(=O)c3ccc(NC(=O)c4nsc5ccccc45)cc3)CC2C)c1 (stereo not drawn),AC50,[1],"0.2 µM [falling, full curve]"
CCOc1ccc(Cl)cc1C1CC(=O)Nc2cc(OC)c(OC)c(OC)c21 (stereo not drawn),AC50,[1],"3.16 µM [rising, partial curve]"
CCOC(=O)C1CCCN(C(=O)Cn2ncc3c([nH]c4ccc(C)cc43)c2=O)C1 (stereo not drawn),AC50,[1],"39.8 µM [falling, single point]"
CCCC(CCC)C(=O)Nc1cccc(-c2cn3cccnc3n2)c1,AC50,[2],"0.0158 µM [falling, full curve, poor fit]"
same,AC50,[3],"0.251 µM [falling, full curve]"
COc1ccccc1CNC(=O)c1sc2nc3n(c(=O)c2c1C)CCC3,AC50,[1],"39.8 µM [falling, single point]"
CCOc1ccc(-c2nnc(NC(=O)c3ccc(OCC(C)C)c(OC)c3)o2)cc1,AC50,[1],"39.8 µM [falling, single point]"
CCc1cnc2c(c1SCC(=O)Nc1cc(Cl)ccc1OC)c(=O)n(C)c(=O)n2C,AC50,[1],"31.6 µM [falling, single point]"
COc1ccc(-c2noc(CSc3nnc(-c4ccc(Cl)cc4)n3C)n2)cc1OC,AC50,[1],"39.8 µM [falling, single point]"
Cc1ccc(Cl)cc1NC(=O)CSc1nc(C)c(C)c(C)c1C#N,AC50,[1],"6.31 µM [rising, partial curve]"
CCOC(=O)c1cnc2c(C(F)(F)F)cccc2c1Nc1cccc(C(=O)OC)c1,AC50,[1],"12.6 µM [falling, partial curve]"
O=C(c1cc(-c2ccccc2)on1)N1CCN(Cc2ccc3c(c2)OCO3)CC1,AC50,[1],"12.6 µM [falling, partial curve]"
CN1CCN(C(=O)Nc2cccc(Cl)c2)c2cccnc21,AC50,[1],"5.01 µM [rising, partial curve]"
Cc1ccc(CNC(=O)C2CCCN(S(=O)(=O)c3ccc4c(ccn4C)c3)C2)cc1 (stereo not drawn),AC50,[1],"31.6 µM [falling, partial curve]"
CCc1ccc(CNC(=O)C2CCN(C(=O)N3CC(CC)Oc4ccc(C)cc43)CC2)cc1 (stereo not drawn),AC50,[1],"10 µM [falling, partial curve]"
O=c1[nH]c(NCCO)nc2c1C1(CCCCC1)Cc1ccccc1-2,AC50,[1],"31.6 µM [falling, single point]"
O=C(NC1CCCC1)c1ccc2c(c1)N(Cc1ccccc1Cl)C(=O)c1ccccc1S2,AC50,[1],"5.01 µM [falling, partial curve]"
Cc1cc(C)c(NC(=O)CSc2ncc(S(=O)(=O)c3ccc(C(C)(C)C)cc3)c(=O)[nH]2)c(C)c1,AC50,[1],"0.251 µM [falling, full curve, poor fit]"
Cc1ccc(OCc2nc(-c3ccc(C(=O)NCCc4ccc(S(N)(=O)=O)cc4)cc3)oc2C)cc1,AC50,[1],"31.6 µM [rising, single point]"
COC(=O)c1c(NC(=O)CCCOc2ccccc2C)sc2c1CCC(C)C2 (stereo not drawn),AC50,[1],"15.8 µM [falling, single point]"
O=C(Cc1cccs1)Nc1nc2c(s1)CCCC2,AC50,[1],"12.6 µM [falling, partial curve]"
O=C(Nc1ccc2nc(SCC(=O)N3CCCC3)sc2c1)c1ccccc1F,AC50,[1],"25.1 µM [falling, single point]"

# Reformatted as tab-separated lines: part of the list above
smiles	measurement	setting	value
COc1cccc(NC(=O)CCC(=O)N2Cc3ccccc3Oc3ncccc32)c1	AC50	[1]	20 µM [falling, partial curve, poor fit]
CC(C)OC(=O)c1cccc(NC(=O)Cn2nnc3sc4c(c3c2=O)CCCC4)c1	AC50	[1]	15.8 µM [falling, partial curve]
COc1cccc(Nc2ncc3nc(C)c(=O)n(C)c3n2)c1	AC50	[1]	3.16 µM [falling, partial curve] [measured here: IkB-luc green channel]
Cc1ccc(-n2cc(-c3ccccc3)c3c(N4CCCCC4)ncnc32)cc1	AC50	[1]	3.16 µM [falling, partial curve]
Cc1cccc(Nc2nnc(-c3ccc(C)c(S(=O)(=O)N4CCCCC4)c3)c3ccccc23)c1	AC50	[1]	0.398 µM [falling, full curve]
